Assay results published in the supplement of paper PMC12823440, “Inhibitors supercharge kinase turnover through native proteolytic circuits” (Nature, 2025).
Where a name gives a salt, the structure may show the parent alone. The list shows a part of the results. The calls rarely recur for the same compound in another form.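 Kinases were expressed as nanoluciferase fusions in K562 cells and luminescence was read every 4 h between 2 and 18 h as percent of control, DMSO set to 100% and a positive control to 0%. A time point counts as decreased when the signal drops significantly (2 sigma). The hit call is the authors' own, does not follow from the count of time points alone, and its rule is not shown.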

Amino acid sequences for entries named in this document (tags omitted). A change or cut given only in a name is not applied to a line headed by its entry.
UniProt P21860, whole entry: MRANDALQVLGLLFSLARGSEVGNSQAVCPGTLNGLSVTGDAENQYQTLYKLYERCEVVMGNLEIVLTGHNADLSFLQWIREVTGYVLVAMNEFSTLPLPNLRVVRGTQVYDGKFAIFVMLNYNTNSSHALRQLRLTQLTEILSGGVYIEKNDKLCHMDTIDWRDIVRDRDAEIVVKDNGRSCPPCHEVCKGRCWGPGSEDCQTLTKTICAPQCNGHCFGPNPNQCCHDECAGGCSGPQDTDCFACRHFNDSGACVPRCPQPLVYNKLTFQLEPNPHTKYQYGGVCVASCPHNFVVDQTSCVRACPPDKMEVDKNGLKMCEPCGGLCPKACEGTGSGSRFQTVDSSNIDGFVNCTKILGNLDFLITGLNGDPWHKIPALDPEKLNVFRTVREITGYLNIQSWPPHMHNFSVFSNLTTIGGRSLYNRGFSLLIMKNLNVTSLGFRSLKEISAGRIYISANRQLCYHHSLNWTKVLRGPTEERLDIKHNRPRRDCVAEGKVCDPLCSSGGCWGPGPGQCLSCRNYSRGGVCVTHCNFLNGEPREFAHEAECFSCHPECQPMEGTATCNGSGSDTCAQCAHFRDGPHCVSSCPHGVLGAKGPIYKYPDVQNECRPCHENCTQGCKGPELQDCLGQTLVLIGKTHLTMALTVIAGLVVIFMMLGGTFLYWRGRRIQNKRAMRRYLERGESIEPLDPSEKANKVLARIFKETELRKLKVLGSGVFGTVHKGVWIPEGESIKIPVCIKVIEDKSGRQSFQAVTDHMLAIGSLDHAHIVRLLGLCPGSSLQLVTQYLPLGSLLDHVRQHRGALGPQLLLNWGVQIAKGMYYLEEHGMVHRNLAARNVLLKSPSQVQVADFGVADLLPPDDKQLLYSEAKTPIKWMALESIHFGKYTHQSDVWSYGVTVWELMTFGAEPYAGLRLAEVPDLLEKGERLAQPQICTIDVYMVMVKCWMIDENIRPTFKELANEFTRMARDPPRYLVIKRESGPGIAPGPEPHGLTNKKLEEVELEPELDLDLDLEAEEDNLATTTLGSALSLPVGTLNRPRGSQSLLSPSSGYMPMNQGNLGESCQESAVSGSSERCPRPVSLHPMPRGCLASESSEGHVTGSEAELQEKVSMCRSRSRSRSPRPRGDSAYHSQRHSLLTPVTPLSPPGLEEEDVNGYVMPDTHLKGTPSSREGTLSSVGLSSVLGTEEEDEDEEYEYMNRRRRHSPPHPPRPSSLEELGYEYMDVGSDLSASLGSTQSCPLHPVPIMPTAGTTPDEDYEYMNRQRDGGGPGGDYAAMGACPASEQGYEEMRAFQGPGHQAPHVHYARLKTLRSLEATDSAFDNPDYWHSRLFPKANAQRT
UniProt Q15303, whole entry R711C: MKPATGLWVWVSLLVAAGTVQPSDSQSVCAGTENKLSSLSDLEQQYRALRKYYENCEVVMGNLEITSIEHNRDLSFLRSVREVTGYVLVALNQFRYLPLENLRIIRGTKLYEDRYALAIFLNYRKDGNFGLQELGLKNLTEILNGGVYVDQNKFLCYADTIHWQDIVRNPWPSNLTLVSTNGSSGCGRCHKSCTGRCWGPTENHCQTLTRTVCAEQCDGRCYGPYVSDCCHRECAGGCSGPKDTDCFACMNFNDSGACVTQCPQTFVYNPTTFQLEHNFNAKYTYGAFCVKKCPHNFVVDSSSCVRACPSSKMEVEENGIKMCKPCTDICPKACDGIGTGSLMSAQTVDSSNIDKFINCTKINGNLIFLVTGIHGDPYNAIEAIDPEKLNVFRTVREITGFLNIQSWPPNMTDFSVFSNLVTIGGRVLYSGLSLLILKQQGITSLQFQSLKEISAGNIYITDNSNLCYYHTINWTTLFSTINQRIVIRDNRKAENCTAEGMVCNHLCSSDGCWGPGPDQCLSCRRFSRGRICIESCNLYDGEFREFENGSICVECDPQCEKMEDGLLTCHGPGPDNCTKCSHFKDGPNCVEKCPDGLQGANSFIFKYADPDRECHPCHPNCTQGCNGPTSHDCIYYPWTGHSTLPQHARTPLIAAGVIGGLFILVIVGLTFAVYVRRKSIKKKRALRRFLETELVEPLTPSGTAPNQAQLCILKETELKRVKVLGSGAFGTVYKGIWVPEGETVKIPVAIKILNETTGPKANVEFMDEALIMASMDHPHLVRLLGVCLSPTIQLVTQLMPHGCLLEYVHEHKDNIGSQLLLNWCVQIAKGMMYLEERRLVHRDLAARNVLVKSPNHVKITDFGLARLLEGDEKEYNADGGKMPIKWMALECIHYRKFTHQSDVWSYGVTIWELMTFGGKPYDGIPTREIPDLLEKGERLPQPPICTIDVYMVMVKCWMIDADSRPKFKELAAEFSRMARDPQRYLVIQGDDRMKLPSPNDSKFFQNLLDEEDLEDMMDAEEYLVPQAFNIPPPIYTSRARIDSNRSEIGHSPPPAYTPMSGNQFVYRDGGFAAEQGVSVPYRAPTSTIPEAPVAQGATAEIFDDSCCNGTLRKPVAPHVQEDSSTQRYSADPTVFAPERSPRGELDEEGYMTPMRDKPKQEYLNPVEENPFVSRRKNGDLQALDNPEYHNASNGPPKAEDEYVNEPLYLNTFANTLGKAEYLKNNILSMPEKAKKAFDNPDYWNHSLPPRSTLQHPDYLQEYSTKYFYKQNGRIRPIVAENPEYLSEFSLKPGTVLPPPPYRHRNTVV
UniProt O75460: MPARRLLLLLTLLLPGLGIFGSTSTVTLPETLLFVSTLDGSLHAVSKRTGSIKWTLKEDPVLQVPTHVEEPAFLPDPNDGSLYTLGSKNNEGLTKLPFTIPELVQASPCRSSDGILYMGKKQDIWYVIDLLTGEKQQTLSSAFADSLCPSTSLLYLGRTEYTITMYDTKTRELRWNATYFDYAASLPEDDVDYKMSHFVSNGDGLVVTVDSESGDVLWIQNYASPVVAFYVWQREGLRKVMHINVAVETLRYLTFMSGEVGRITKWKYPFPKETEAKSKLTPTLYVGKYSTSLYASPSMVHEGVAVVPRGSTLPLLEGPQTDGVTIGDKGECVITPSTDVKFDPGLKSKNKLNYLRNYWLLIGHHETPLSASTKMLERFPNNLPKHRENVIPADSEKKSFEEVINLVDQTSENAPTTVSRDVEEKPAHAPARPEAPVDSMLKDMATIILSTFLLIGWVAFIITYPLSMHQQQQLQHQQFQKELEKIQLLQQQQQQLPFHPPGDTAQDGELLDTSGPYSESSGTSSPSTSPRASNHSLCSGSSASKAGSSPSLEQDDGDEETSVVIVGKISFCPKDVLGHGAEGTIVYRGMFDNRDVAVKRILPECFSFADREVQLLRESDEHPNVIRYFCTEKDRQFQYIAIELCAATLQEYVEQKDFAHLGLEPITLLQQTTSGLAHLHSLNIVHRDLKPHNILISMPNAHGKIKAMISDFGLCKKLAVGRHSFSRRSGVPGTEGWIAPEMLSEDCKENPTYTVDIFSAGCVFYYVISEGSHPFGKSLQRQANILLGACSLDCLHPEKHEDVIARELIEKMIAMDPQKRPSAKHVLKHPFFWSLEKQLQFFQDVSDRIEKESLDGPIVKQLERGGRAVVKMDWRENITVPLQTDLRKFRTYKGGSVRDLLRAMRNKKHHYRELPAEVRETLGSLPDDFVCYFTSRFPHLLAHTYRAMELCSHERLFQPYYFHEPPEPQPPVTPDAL
UniProt P22607, whole entry, looked up: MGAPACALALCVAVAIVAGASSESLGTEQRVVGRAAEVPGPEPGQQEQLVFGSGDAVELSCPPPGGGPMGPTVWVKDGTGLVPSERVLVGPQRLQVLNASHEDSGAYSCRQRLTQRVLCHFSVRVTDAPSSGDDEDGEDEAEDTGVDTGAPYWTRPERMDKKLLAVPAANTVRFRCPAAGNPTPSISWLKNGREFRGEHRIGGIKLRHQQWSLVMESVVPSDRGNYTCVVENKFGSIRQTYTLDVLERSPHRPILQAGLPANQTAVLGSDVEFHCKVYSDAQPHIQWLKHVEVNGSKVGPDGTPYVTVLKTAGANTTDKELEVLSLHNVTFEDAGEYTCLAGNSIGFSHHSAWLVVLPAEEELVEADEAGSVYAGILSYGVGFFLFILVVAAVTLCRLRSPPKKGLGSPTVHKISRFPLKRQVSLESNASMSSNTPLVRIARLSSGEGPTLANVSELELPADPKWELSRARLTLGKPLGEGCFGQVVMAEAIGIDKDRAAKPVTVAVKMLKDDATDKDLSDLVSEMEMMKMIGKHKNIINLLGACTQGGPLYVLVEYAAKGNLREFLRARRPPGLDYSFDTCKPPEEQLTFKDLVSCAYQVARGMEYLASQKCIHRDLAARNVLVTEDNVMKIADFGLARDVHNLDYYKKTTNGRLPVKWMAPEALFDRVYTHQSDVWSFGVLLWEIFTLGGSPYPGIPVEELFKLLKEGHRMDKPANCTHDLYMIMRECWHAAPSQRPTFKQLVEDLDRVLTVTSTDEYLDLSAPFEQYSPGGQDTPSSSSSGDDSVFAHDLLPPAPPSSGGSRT
UniProt P36888, whole entry: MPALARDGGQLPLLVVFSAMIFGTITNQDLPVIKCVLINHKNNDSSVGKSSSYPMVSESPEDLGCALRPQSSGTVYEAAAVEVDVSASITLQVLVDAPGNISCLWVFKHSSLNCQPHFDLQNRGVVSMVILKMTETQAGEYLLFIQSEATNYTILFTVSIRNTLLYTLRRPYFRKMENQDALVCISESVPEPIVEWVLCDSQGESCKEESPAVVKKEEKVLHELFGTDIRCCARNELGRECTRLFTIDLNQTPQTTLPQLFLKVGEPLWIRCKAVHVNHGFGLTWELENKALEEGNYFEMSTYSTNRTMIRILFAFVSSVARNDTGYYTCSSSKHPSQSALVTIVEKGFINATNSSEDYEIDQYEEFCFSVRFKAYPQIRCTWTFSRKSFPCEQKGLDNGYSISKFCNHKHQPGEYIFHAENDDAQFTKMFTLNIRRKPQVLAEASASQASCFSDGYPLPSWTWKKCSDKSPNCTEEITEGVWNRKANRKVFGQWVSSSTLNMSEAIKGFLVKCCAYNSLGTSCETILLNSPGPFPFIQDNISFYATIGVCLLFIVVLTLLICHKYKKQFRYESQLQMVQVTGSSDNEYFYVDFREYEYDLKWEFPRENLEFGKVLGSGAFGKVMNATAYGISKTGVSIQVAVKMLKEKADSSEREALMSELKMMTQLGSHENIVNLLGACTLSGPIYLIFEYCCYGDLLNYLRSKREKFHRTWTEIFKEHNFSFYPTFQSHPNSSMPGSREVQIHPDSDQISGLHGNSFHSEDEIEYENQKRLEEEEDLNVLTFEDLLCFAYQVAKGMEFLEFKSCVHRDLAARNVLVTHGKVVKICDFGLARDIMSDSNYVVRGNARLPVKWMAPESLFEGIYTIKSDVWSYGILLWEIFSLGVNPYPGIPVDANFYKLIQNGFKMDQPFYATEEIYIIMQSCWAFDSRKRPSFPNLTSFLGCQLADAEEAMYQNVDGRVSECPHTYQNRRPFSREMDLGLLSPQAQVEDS
UniProt P06241, whole entry, looked up: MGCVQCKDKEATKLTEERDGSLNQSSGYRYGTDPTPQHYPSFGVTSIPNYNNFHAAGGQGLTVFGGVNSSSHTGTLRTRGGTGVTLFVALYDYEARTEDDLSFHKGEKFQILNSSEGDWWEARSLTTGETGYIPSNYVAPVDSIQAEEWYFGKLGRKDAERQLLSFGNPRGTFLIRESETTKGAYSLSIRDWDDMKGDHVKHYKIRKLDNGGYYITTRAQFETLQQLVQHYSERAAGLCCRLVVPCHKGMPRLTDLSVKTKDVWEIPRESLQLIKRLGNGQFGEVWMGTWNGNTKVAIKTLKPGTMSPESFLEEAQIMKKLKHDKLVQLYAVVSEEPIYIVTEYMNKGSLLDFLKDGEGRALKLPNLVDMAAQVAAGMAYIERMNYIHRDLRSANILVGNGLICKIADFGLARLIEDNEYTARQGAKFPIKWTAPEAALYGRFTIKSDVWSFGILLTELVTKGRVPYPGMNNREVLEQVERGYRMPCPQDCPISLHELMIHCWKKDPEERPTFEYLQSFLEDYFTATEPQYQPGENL
UniProt P49840: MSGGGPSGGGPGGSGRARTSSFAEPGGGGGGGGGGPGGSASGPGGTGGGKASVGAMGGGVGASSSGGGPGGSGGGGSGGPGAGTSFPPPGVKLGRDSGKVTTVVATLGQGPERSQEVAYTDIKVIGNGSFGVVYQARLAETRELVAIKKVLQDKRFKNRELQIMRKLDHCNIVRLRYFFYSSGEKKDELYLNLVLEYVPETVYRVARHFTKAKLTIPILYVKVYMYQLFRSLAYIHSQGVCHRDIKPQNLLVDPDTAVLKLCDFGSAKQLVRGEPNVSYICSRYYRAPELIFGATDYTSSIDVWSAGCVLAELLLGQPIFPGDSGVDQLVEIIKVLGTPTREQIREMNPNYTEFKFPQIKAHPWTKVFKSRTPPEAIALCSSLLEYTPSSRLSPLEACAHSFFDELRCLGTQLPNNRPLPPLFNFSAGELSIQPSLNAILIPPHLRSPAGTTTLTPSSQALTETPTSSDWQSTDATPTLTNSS

Columns and labels:
Experiment in all cases: kinase-Nluc reporter destabilization hit call (1 = scored as downregulated) (binary); higher = compound decreases kinase abundance
Conditions in all cases: K562; 2-18 h
[1] = molecular target: EGFR (UniProt P00533)
[2] = molecular target: EGFR_G719S (UniProt P00533)
[3] = molecular target: EGFR_G719S_T790M (UniProt P00533)
[4] = molecular target: EGFR_L718V (UniProt P00533)
[5] = molecular target: EGFR_L858R (UniProt P00533)
[6] = molecular target: EGFR_L861Q (UniProt P00533)
[7] = molecular target: EGFR_T790M (UniProt P00533)
[8] = molecular target: EPHA2 (UniProt P29317)
[9] = molecular target: ERBB3 (UniProt P21860)
[10] = molecular target: ERBB4_R711C (clone: ERBB4_mut) (UniProt Q15303)
[11] = molecular target: ERN1 (UniProt O75460)
[12] = molecular target: FGFR1 (UniProt P11362)
[13] = molecular target: FGFR2 (UniProt P21802)
[14] = molecular target: FGFR3 (UniProt P22607)
[15] = molecular target: FGR (UniProt P09769)
[16] = molecular target: FLT3 (UniProt P36888)
[17] = molecular target: FYN (UniProt P06241)
[18] = molecular target: GSK3A (UniProt P49840)
[19] = molecular target: HER2 (UniProt P04626)
[20] = molecular target: INSRR (UniProt P14616)

Measured: kinase-Nluc reporter destabilization hit call

Cc1cc(Nc2cc(Cl)nc(Oc3ccc([N+](=O)[O-])cc3)n2)n[nH]1 [Autophinib] (2.5 µM)
inactive: [1] 0 | [2] 0 | [3] 0 | [4] 0 | [5] 0 | [6] 0 | [7] 0 | [8] 0 | [9] 0 | [10] 0 | [11] 0 | [12] 0 | [13] 0 | [14] 0 | [15] 0 | [16] 0 | [17] 0 | [18] 0 | [19] 0 | [20] 0

COC1(C(=O)N2Cc3nc(Cl)nc(N[C@H](C)c4cc(N)cc(C(F)(F)F)c4)c3C2)CCOCC1 (10 µM)
inactive: [1] 0 | [2] 0 | [3] 0 | [4] 0 | [5] 0 | [6] 0 | [7] 0 | [8] 0 | [9] 0 | [10] 0 | [11] 0 | [12] 0 | [13] 0 | [14] 0 | [15] 0 | [16] 0 | [17] 0 | [18] 0 | [19] 0 | [20] 0

O=c1oc2cc(O)ccc2c2ccccc12 [Urolithin B] (10 µM)
inactive: [1] 0 | [2] 0 | [3] 0 | [4] 0 | [5] 0 | [6] 0 | [7] 0 | [8] 0 | [9] 0 | [10] 0 | [11] 0 | [12] 0 | [13] 0 | [14] 0 | [15] 0 | [16] 0 | [17] 0 | [18] 0 | [19] 0 | [20] 0

COc1ccc([C@H]2c3[nH]c4ccc(Cl)cc4c3CCN2C(=O)Oc2ccc(Cl)cc2)cc1 (2.5 µM)
inactive: [1] 0 | [2] 0 | [3] 0 | [4] 0 | [5] 0 | [6] 0 | [7] 0 | [8] 0 | [9] 0 | [10] 0 | [11] 0 | [12] 0 | [13] 0 | [14] 0 | [15] 0 | [16] 0 | [17] 0 | [18] 0 | [19] 0 | [20] 0

Cn1cc(Nc2nccc(N3C[C@H]4CC[C@@H](C3)N4C(=O)[C@@H]3CC3(F)F)n2)cn1 (10 µM)
inactive: [1] 0 | [2] 0 | [3] 0 | [4] 0 | [5] 0 | [6] 0 | [7] 0 | [8] 0 | [9] 0 | [10] 0 | [11] 0 | [12] 0 | [13] 0 | [14] 0 | [15] 0 | [16] 0 | [17] 0 | [18] 0 | [19] 0 | [20] 0

O=[N+]([O-])c1cc(C(F)(F)F)cc([N+](=O)[O-])c1NNC(=S)Nc1ccc(F)cc1 (10 µM)
inactive: [1] 0 | [2] 0 | [3] 0 | [4] 0 | [5] 0 | [6] 0 | [7] 0 | [8] 0 | [9] 0 | [10] 0 | [11] 0 | [12] 0 | [13] 0 | [14] 0 | [15] 0 | [16] 0 | [17] 0 | [18] 0 | [19] 0 | [20] 0

O=C(/C=C/c1ccc(O[C@@H]2O[C@H](CO)[C@@H](O)[C@H](O)[C@H]2O[C@@H]2OC[C@](O)(CO)[C@H]2O)cc1)c1ccc(O)cc1O [Isoliquiritin apioside] (10 µM)
inactive: [1] 0 | [2] 0 | [3] 0 | [4] 0 | [5] 0 | [6] 0 | [7] 0 | [8] 0 | [9] 0 | [10] 0 | [11] 0 | [12] 0 | [13] 0 | [14] 0 | [15] 0 | [16] 0 | [17] 0 | [18] 0 | [19] 0 | [20] 0

Some of these compounds in order of molar mass, ascending:
Cc1cc(Nc2cc(Cl)nc(Oc3ccc([N+](=O)[O-])cc3)n2)n[nH]1 [Autophinib] (2.5 µM)
inactive: [1] 0 | [2] 0 | [3] 0 | [4] 0 | [5] 0 | [6] 0 | [7] 0 | [8] 0 | [9] 0 | [10] 0 | [11] 0 | [12] 0 | [13] 0 | [14] 0 | [15] 0 | [16] 0 | [17] 0 | [18] 0 | [19] 0 | [20] 0

Cn1cc(Nc2nccc(N3C[C@H]4CC[C@@H](C3)N4C(=O)[C@@H]3CC3(F)F)n2)cn1 (10 µM)
inactive: [1] 0 | [2] 0 | [3] 0 | [4] 0 | [5] 0 | [6] 0 | [7] 0 | [8] 0 | [9] 0 | [10] 0 | [11] 0 | [12] 0 | [13] 0 | [14] 0 | [15] 0 | [16] 0 | [17] 0 | [18] 0 | [19] 0 | [20] 0

O=[N+]([O-])c1cc(C(F)(F)F)cc([N+](=O)[O-])c1NNC(=S)Nc1ccc(F)cc1 (10 µM)
inactive: [1] 0 | [2] 0 | [3] 0 | [4] 0 | [5] 0 | [6] 0 | [7] 0 | [8] 0 | [9] 0 | [10] 0 | [11] 0 | [12] 0 | [13] 0 | [14] 0 | [15] 0 | [16] 0 | [17] 0 | [18] 0 | [19] 0 | [20] 0

COc1ccc([C@H]2c3[nH]c4ccc(Cl)cc4c3CCN2C(=O)Oc2ccc(Cl)cc2)cc1 (2.5 µM)
inactive: [1] 0 | [2] 0 | [3] 0 | [4] 0 | [5] 0 | [6] 0 | [7] 0 | [8] 0 | [9] 0 | [10] 0 | [11] 0 | [12] 0 | [13] 0 | [14] 0 | [15] 0 | [16] 0 | [17] 0 | [18] 0 | [19] 0 | [20] 0

Next structures

CN1CCN(c2ccc(C(=O)Nc3cc(-c4cccc(NS(=O)(=O)c5ccccc5)c4)[nH]n3)cc2)CC1 [BPR1J-097 Hydrochloride] (2.5 µM)
inactive: [1] 0 | [2] 0 | [3] 0 | [4] 0 | [5] 0 | [6] 0 | [7] 0 | [8] 0 | [9] 0 | [10] 0 | [11] 0 | [12] 0 | [13] 0 | [14] 0 | [15] 0 | [16] 0 | [17] 0 | [18] 0 | [19] 0 | [20] 0

Cc1c(CN2CCN(C(=O)[C@H](C)O)CC2)sc2c(N3CCOCC3)nc(-c3cnc(N)nc3)nc12 [Apitolisib] (10 µM)
inactive: [1] 0 | [2] 0 | [3] 0 | [4] 0 | [5] 0 | [6] 0 | [7] 0 | [8] 0 | [9] 0 | [10] 0 | [11] 0 | [12] 0 | [13] 0 | [14] 0 | [15] 0 | [16] 0 | [17] 0 | [18] 0 | [19] 0 | [20] 0

Fc1ccc(-c2nc(-c3ccccc3F)[nH]c2-c2ccncc2)cc1 (2.5 µM)
inactive: [1] 0 | [2] 0 | [3] 0 | [4] 0 | [5] 0 | [6] 0 | [7] 0 | [8] 0 | [9] 0 | [10] 0 | [11] 0 | [12] 0 | [13] 0 | [14] 0 | [15] 0 | [16] 0 | [17] 0 | [18] 0 | [19] 0 | [20] 0

Cc1csc(-c2nnc(Nc3ccc(Oc4ncccc4-c4ccnc(N)n4)cc3)c3ccccc23)c1 (2.5 µM)
inactive: [1] 0 | [2] 0 | [3] 0 | [4] 0 | [5] 0 | [6] 0 | [7] 0 | [8] 0 | [9] 0 | [10] 0 | [11] 0 | [12] 0 | [13] 0 | [14] 0 | [15] 0 | [16] 0 | [17] 0 | [18] 0 | [19] 0 | [20] 0

CCN1CCN(Cc2ccc(Nc3ncc(F)c(-c4cc(F)c5nc(CO)n(C(C)C)c5c4)n3)nc2)CC1 [Abemaciclib metabolite M20] (2 µM)
inactive: [1] 0 | [2] 0 | [3] 0 | [4] 0 | [5] 0 | [6] 0 | [7] 0 | [8] 0 | [9] 0 | [10] 0 | [11] 0 | [12] 0 | [13] 0 | [14] 0 | [15] 0 | [16] 0 | [17] 0 | [18] 0 | [19] 0 | [20] 0

COc1ccc([C@@H]2CC(=O)c3c(O)cc(O)cc3O2)cc1O [Hesperetin] (10 µM)
inactive: [1] 0 | [2] 0 | [3] 0 | [4] 0 | [5] 0 | [6] 0 | [7] 0 | [8] 0 | [9] 0 | [10] 0 | [11] 0 | [12] 0 | [13] 0 | [14] 0 | [15] 0 | [16] 0 | [17] 0 | [18] 0 | [19] 0 | [20] 0

O=C(Nc1nc2ccccc2[nH]1)c1cccc(-n2cccc2)c1 (10 µM)
inactive: [1] 0 | [2] 0 | [3] 0 | [4] 0 | [5] 0 | [6] 0 | [7] 0 | [8] 0 | [9] 0 | [10] 0 | [11] 0 | [12] 0 | [13] 0 | [14] 0 | [15] 0 | [16] 0 | [17] 0 | [18] 0 | [19] 0 | [20] 0

O=C(O)CCc1ccc(O)c(O)c1 [Dihydrocaffeic acid] (10 µM)
inactive: [1] 0 | [2] 0 | [3] 0 | [4] 0 | [5] 0 | [6] 0 | [7] 0 | [8] 0 | [9] 0 | [10] 0 | [11] 0 | [12] 0 | [13] 0 | [14] 0 | [15] 0 | [16] 0 | [17] 0 | [18] 0 | [19] 0 | [20] 0

CNC(=O)Nc1ccc(-c2cc(-c3ccnc(Nc4ccc(C)c(S(=O)(=O)N(C)C)c4)n3)ccn2)cc1 [hSMG-1 inhibitor 11e] (2.5 µM)
inactive: [1] 0 | [2] 0 | [3] 0 | [4] 0 | [5] 0 | [6] 0 | [7] 0 | [8] 0 | [9] 0 | [10] 0 | [11] 0 | [12] 0 | [13] 0 | [14] 0 | [15] 0 | [16] 0 | [17] 0 | [18] 0 | [19] 0 | [20] 0
